Laboratory results from US20250295801A1, “CD25 ANTIBODIES, ANTIBODY DRUG CONJUGATES, AND USES THEREOF” (Seagen Inc., priority 2024, published 2025).
Changes are numbered by the printed parent chain. These are yes or no findings as the source states them, for the method shown. Some binding calls cover weakened binding; strength is not graded here.

Tests used:
[1] = molecular target: T1, recombinant cynomolgus CD25 (cynomolgus, UniProt H6WS54 22-213); assay: ELISA on plate-coated cynomolgus CD25
T1 construct: also called cyno CD25; cynomolgus CD25/IL2RA
T1 sequence: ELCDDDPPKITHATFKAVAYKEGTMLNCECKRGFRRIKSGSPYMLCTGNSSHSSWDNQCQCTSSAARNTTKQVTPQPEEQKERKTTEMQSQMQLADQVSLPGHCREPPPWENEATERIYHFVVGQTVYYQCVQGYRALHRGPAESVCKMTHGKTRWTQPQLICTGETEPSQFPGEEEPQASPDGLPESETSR

[2] = molecular target: T1, recombinant cynomolgus CD25; assay: ELISA (FIG. 1B)
recombinant human CD25 [3] = molecular target: T2, recombinant human CD25 (human, UniProt P01589 22-213, limits assumed, biotinylated in the Octet kinetic assay (site not stated)); assay: biolayer interferometry (Octet RED384), biotinylated recombinant human CD25 on streptavidin (SAX) tips, antibody in solution
T2 construct: Soluble recombinant antigen; It was coated on plates for ELISA and used as bought biotinylated protein for BLI; The ELISA and BLI reagents may be different constructs; also called hCD25; CD25/IL2RA
T2 sequence: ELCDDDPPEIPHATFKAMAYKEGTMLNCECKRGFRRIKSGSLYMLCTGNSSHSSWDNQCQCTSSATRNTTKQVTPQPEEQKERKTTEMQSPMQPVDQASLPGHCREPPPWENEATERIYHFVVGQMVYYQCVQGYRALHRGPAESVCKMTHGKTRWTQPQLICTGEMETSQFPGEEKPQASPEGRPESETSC

recombinant human CD25 [4] = molecular target: T2, recombinant human CD25; assay: saturation binding ELISA on recombinant human CD25
recombinant human CD25 [5] = molecular target: T2, recombinant human CD25; assay: ELISA (FIG. 1A)
[6] = molecular target: T1, recombinant cynomolgus CD25; assay: ELISA (FIG. 1A)
[7] = molecular target: T1, recombinant cynomolgus CD25; assay: saturation binding ELISA on plate-coated recombinant cynomolgus CD25
recombinant human CD25 [8] = molecular target: T2, recombinant human CD25; assay: saturation binding ELISA on plate-coated recombinant human CD25
recombinant human CD25 [9] = molecular target: T2, recombinant human CD25; assay: saturation binding ELISA on coated recombinant antigen
[10] = molecular target: T1, recombinant cynomolgus CD25; assay: as above
[11] = molecular target: T1, recombinant cynomolgus CD25; assay: saturation binding ELISA on recombinant cynomolgus CD25
recombinant human CD25 [12] = molecular target: T2, recombinant human CD25; assay: BLI (Octet RED384), biotinylated hCD25 on SAX tips
[13] = molecular target: recombinant human CD25 (human) (UniProt P01589); assay: saturation binding ELISA on recombinant human CD25
[14] = molecular target: recombinant human CD25 (human) (UniProt P01589); assay: saturation binding ELISA on recombinant human CD25 (FIG. 8A, 8B)
[15] = molecular target: recombinant human CD25 (human) (UniProt P01589); assay: biolayer interferometry (Octet RED384), biotinylated recombinant human CD25 on streptavidin (SAX) tips, antibody in solution
[16] = molecular target: recombinant cynomolgus CD25 (cynomolgus) (UniProt H6WS54); assay: saturation binding ELISA on recombinant antigen (FIG. 7)
[17] = molecular target: recombinant human CD25 (human) (UniProt P01589); assay: as above
[18] = molecular target: recombinant cynomolgus CD25 (cynomolgus) (UniProt H6WS54); assay: saturation binding ELISA on recombinant cynomolgus CD25
[19] = molecular target: recombinant human CD25 (human) (UniProt P01589); assay: BLI (Octet RED384), biotinylated hCD25 on SAX tips

Measured: binding

B1: CD25 antibody SG25Ab-4 (antibody, human IgG1, lambda, V domains shown)
VH: EVQLVQSGAEVKKPGESLKISCKGPEYSFNRYWIAWVRQRPGKGLEWMGIIYPGDSDARYSPTFEGHVTLSADMSLTTAYLQWSSLRASDTAMYYCARLGSYYAFDIWGKGTMVTVSS
VL: QSALTQPASVSGSPGQSITIFCTGTSSDVGGYNYVSWYQQHPGKAPKLMIYDVSKRPSGVSNRFSGSKSGNTASLTISGLQAEDEADYYCSSYTSSSTWVFGGGTQLTVLS
notes: IgG1 format; also called SGAb25-4
binds: [1] | [2]

B2: CD25 antibody SG25Ab-9 (antibody, human IgG1, lambda, V domains shown)
VH: QVQLVQSGAEVKKPGESLKISCKGSGYSSTSYWIGWVRQMPGKGLEWMGIIYPGDSDTRYSPSFQGQVTISADKSISTAYLQWSSLKASDTAMYYCARLGSYYAFDIWGRGTMVTVSS
VL: QSALTQPASVSASPGQSITISCTGTSSDVGAYIYVSWYQQLSGKPPKLILYDVSKRPSGISDRFSGSKSGNTASLTISGLQADDEADYYCSSYTRSSTWVFGGGTQLTVLG
notes: Fully human antibody from a phage scFv library, expressed as IgG1 with a lambda light chain; HC and LC are the entries without signal peptide; also called SG25Ab-9 IgG1; SGAb25-9
not listed: [2] | [13] | [14] | [15] | [16] | [17] | [18] | [19]
binds: all other assays above

B3: SG25Ab-9 variant YH99A (antibody, V domains shown)
VH: B2 VH with Y103A
VL: B2 VL
notes: Kabat-type numbering, not linear
binds: [13] | [14]

B4: detuned CD25 antibody SG25Ab-9 YH98A (antibody, human IgG1, lambda, V domains shown)
VH: B2 VH with Y102A
VL: B2 VL
notes: IgG1; Tyr to Ala in CDR-H3 (YH98A); also called SGAb25-9 YH98A
binds: [15] | [16] | [17] | [13] | [14] | [18] | [19]
